From article PMC5823669, “Multi-chaperone function modulation and association with cytoskeletal proteins are key features of the function of AIP in the pituitary gland” (Oncotarget, 2018)
Results are given in words; binding and its absence hold for the method and conditions named. In cells and extracts the contact can be indirect. Here binding means that the protein was enriched with, or labelled near, the bait; the list need not be complete. Tags and fused reporters may be left off the sequences shown.

Sequences of proteins named here, by UniProt entry; tags and fusion partners are left off. Residues count along the entry.
UniProt Q9QX69: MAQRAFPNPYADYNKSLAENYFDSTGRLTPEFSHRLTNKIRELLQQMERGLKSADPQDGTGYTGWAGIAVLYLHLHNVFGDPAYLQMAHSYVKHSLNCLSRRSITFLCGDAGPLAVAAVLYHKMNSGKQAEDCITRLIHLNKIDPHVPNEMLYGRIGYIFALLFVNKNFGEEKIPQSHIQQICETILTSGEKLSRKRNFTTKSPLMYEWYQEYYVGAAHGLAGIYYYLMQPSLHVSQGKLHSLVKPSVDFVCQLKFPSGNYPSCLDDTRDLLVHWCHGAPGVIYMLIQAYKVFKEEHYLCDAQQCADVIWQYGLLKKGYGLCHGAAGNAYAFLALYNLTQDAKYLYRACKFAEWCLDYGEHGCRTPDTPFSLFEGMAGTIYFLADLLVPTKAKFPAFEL
UniProt P63018: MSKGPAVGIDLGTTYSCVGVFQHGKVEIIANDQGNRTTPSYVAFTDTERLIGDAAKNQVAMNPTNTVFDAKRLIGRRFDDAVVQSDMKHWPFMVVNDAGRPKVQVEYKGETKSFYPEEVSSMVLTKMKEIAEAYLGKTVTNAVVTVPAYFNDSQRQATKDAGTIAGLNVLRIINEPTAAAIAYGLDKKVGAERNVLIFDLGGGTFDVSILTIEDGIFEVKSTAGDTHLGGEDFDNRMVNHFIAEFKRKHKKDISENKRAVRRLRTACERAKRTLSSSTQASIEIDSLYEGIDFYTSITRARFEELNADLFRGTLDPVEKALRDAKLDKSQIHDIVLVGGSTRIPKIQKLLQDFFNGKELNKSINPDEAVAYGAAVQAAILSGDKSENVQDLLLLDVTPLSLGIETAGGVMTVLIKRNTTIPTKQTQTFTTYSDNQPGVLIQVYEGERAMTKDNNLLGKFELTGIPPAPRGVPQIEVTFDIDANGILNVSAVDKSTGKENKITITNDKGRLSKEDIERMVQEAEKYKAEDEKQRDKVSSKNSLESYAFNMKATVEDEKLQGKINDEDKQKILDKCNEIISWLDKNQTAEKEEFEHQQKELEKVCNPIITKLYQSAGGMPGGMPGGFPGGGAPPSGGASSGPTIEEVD
UniProt Q6P9T8: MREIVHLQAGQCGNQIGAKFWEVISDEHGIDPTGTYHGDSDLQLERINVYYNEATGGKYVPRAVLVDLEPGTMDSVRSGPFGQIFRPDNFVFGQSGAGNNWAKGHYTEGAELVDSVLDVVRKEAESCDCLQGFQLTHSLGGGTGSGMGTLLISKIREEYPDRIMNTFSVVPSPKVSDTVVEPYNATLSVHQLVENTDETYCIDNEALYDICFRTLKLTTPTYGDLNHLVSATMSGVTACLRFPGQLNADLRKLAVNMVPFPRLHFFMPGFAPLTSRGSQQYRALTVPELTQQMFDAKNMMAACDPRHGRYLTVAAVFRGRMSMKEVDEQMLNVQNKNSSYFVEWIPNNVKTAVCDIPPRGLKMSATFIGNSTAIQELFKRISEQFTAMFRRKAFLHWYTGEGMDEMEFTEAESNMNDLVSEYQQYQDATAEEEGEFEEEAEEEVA
UniProt P15999, residues 44-553: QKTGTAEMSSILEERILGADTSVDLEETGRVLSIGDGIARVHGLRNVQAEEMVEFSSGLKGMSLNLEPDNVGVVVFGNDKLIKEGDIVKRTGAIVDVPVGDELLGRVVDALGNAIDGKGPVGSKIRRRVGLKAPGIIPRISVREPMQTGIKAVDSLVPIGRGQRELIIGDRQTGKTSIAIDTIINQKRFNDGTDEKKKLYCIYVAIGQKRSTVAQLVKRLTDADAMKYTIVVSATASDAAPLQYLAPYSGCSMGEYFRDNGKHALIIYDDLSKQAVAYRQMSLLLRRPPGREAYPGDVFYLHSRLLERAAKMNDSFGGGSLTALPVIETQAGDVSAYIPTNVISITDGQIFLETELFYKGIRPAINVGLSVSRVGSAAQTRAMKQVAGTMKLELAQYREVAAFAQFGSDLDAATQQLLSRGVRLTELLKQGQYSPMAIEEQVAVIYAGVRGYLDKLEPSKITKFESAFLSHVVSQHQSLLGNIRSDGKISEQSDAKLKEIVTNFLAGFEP
UniProt Q6PEC4: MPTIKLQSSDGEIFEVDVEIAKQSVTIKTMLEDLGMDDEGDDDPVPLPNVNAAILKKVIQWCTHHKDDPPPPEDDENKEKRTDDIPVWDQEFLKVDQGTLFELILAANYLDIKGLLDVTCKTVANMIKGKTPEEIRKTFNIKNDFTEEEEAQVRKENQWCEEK

T1: GST-tagged human wild-type AIP (aryl hydrocarbon receptor interacting protein) (human) (UniProt O00170)
T1 sequence: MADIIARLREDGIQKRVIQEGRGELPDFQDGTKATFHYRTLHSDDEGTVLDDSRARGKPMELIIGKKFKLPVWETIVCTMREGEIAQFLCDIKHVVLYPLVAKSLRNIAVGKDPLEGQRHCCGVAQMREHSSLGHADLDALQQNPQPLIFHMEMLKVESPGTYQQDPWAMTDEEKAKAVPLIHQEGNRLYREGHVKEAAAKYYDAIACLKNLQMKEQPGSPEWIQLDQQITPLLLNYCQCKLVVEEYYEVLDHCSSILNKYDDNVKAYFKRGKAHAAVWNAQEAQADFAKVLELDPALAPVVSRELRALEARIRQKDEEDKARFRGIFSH


Molecular target: T1, GST-tagged human wild-type AIP (aryl hydrocarbon receptor interacting protein) (human)
Experiment: affinity purification with mass spectrometry; GST pull-down: 10 ug of purified GST-AIP bait (WT or variant) against 2 mg total protein of GH3 cell lysate; eluates of four experiments pooled; TMTsixplex labelling, Orbitrap MS; peptide intensities minus the GST control, variants given as fold of the WT experiment (WT = 1); only the target purified

Molecule	binding
CO4_RAT Complement C4 (C4) (R. norvegicus (endogenous in GH3))	binds
LANC1_RAT LanC-like protein 1 (Lancl1) (from UniProt Q9QX69 1-399)	binds
HSP7C_RAT Heat shock cognate 71 kDa protein (Hspa8) (from UniProt P63018 1-646)	binds
TBB4B_RAT Tubulin beta-4B chain (Tubb4b) (from UniProt Q6P9T8 1-445)	binds
ATPA_RAT ATP synthase subunit alpha, mitochondrial (Atp5a1) (from UniProt P15999 44-553)	binds
SKP1_RAT S-phase kinase-associated protein 1 (Skp1) (from UniProt Q6PEC4 1-163)	binds
KTU_RAT Protein kintoun (Dnaaf2) (protein, UniProt Q5FVL7 1-817) MAKTAASSALEDLDLSGEEVQRLTSAFQDPEFRRMFSDYAAEITDPENRRRYEEEITALERERGVEVRFVHPEPGHVLRTSLDGEHRCFVNVCSNSLVGAPSSRPGPGRGGTAAGSHWSLPYSLAPGRQYAGRNGNRYTVYDVVFHPEALALARSHERFREMLDATALEAVEQQFGVRLDRRNAKTLKIKYKGTPEAAVLRTPLPEGVRAQPEGELPGLLPYPPYPYHYPAAAESTARSPASPAPKAVQRPEPTEPRCSVVQRHHVDLQDYRCSRDAAPSTVPHELVVTIELPLLRSAERAELEVKGKLLCLDSRNPDYRLRLSLPYPVDDGRGRAQYNKARRQLVVTLPVALAVARQDFSTTPEGPTAETGTDNIACTSAGDLAGAREESADSSGADHGRKSCVVAPDAGTAKAEGELVPEPEQDFGGDSVTPLGPGEGTTPENRSLLYSAFQSGDAESLAERSGVYGDLSVQTSEEQEGTCHDTSGSDMGGPGTESIKPLCPPLQCNQDEDSLTLLIQVPGIQPQSLHGDLSPFSYELCFSTQDSGYSFTLQFAPENKLSTKEPAISISLNNAVIVLAKSPESHGLWREWYWGLNKDSLEERLFIDEENVNEFLEEVVRSPLKPARSLSPPLIEVLQVTEEQIQIHAKLQECSDPDGLQGKEKGVKEECPLSEKENTEHSTTSTADSNSSVAVEGLKINTCGAVGLQQGCPDVPHVLSGKRLQSEAKMDPEFIRESSTAYSAEEKENIKEPVITKEKKIGGDHLSSLPNKTAVQNTHDFDTIKETNMQDGSVQIIKDHTTHCAFDFQNSLLYDLD	binds
NFL_RAT Neurofilament light polypeptide (Nefl) (protein, UniProt P19527 1-542) MSSFSYEPYFSTSYKRRYVETPRVHISSVRSGYSTARSAYSSYSAPVSSSLSVRRSYSSSSGSLMPSLENLDLSQVAAISNDLKSIRTQEKAQLQDLNDRFASFIERVHELEQQNKVLEAELLVLRQKHSEPSRFRALYEQEIRDLRLAAEDATNEKQALQGEREGLEETLRNLQARYEEEVLSREDAEGRLMEARKGADEAALARAELEKRIDSLMDEIAFLKKVHEEEIAELQAQIQYAQISVEMDVSSKPDLSAALKDIRAQYEKLAAKNMQNAEEWFKSRFTVLTESAAKNTDAVRAAKDEVSESRRLLKAKTLEIEACRGMNEALEKQLQELEDKQNADISAMQDTINKLENELRSTKSEMARYLKEYQDLLNVKMALDIEIAAYRKLLEGEETRLSFTSVGSITSGYSQSSQVFGRSAYSGLQSSSYLMSARAFPAYYTSHVQEEQSEVEETIEATKAEEAKDEPPSEGEAEEEEKEKEEGEEEEGAEEEEAAKDESEDAKEEEGGEGEEEDTKESEEEEKKEESAGEEQAAKKKD	binds
ATP5I_RAT ATP synthase subunit e, mitochondrial (Atp5i) (protein, UniProt P29419 1-71) MVPPVQVSPLIKFGRYSALILGMAYGAKRYSYLKPRAEEERRIAAEEKKRLDELKRIERELAEAEDVSIFK	binds
